Experimental data: PubChem BioAssay AID1259254 (NCATS, 2017)

Test: 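Genome-wide screen for genes that prevent DNA re-replication in cancer cells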 (primary screen)
Cells: human HCT116 colorectal cancer cells
Reagents: single siRNA against human genes
Duration: 3 days
Measured: 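Nuclei stained with Hoechst and imaged; cell-cycle phase assigned by DNA content; G2 share scaled per plate, non-targeting siRNA 0%, GMNN siRNA 100%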
Scale: G2 robust z-score: higher = more G2 cells, more excess DNA replication
Hit rule: 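Active siRNAs have a G2 robust z of 5 or more median absolute deviations over the median, which in these data means about 38% or higher of GMNN control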
In all, the deposit lists about 59,000 reagents; below is an unselected part. About 1,550 of them (2.6%) count as active. 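G2 share is only a proxy for re-replication; each gene was hit by three separate siRNAs, and active genes were retested.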 Reagents against one gene are numbered here. Further read-outs or replicates are left out here. No sequences are given here. The record does not give: the amount of reagent.

| gene | reagent no. | G2 robust z-score | call |
| --- | --- | --- | --- |
| CTNS (cystinosin, lysosomal cystine transporter) | 1 | 0.39 | inactive |
| CTNS (cystinosin, lysosomal cystine transporter) | 2 | 2.45 | inactive |
| CTNS (cystinosin, lysosomal cystine transporter) | 3 | 0.958 | inactive |
| HNRNPA1P4 (heterogeneous nuclear ribonucleoprotein A1 pseudogene 4) | 1 | -0.425 | inactive |
| HNRNPA1P4 (heterogeneous nuclear ribonucleoprotein A1 pseudogene 4) | 2 | 0.0348 | inactive |
| HNRNPA1P4 (heterogeneous nuclear ribonucleoprotein A1 pseudogene 4) | 3 | -0.653 | inactive |
| GNL1 (G protein nucleolar 1) | 1 | -0.393 | inactive |
| GNL1 (G protein nucleolar 1) | 2 | -0.621 | inactive |
| GNL1 (G protein nucleolar 1) | 3 | 0.139 | inactive |
| SLC7A5 | 1 | 1.24 | inactive |
| SLC7A5 | 2 | 2.27 | inactive |
| SLC7A5 | 3 | 0.708 | inactive |
| DNAJC8 (DnaJ heat shock protein family (Hsp40) member C8) | 1 | -0.0847 | inactive |
| DNAJC8 (DnaJ heat shock protein family (Hsp40) member C8) | 2 | -0.662 | inactive |
| DNAJC8 (DnaJ heat shock protein family (Hsp40) member C8) | 3 | -0.954 | inactive |
| CDK9 (cyclin dependent kinase 9) | 1 | 0.823 | inactive |
| CDK9 (cyclin dependent kinase 9) | 2 | -0.381 | inactive |
| CDK9 (cyclin dependent kinase 9) | 3 | -0.353 | inactive |
| EGR2 (early growth response 2) | 1 | -0.626 | inactive |
| EGR2 (early growth response 2) | 2 | -0.0319 | inactive |
| EGR2 (early growth response 2) | 3 | -0.981 | inactive |
| ZNF554 (zinc finger protein 554) | 1 | -0.212 | inactive |
| ZNF554 (zinc finger protein 554) | 2 | 0.609 | inactive |
| ZNF554 (zinc finger protein 554) | 3 | 0.314 | inactive |
| PABPC5 (poly(A) binding protein cytoplasmic 5) | 1 | -0.456 | inactive |
| PABPC5 (poly(A) binding protein cytoplasmic 5) | 2 | -0.132 | inactive |
| PABPC5 (poly(A) binding protein cytoplasmic 5) | 3 | -0.111 | inactive |
| WNT5A (Wnt family member 5A) | 1 | 0.348 | inactive |
| WNT5A (Wnt family member 5A) | 2 | 6.29 | active |
| WNT5A (Wnt family member 5A) | 3 | -0.213 | inactive |
| B4GALT5 (beta-1,4-galactosyltransferase 5) | 1 | 0.324 | inactive |
| B4GALT5 (beta-1,4-galactosyltransferase 5) | 2 | 0.119 | inactive |
| B4GALT5 (beta-1,4-galactosyltransferase 5) | 3 | 2.7 | inactive |
| CPZ (carboxypeptidase Z) | 1 | 2.06 | inactive |
| CPZ (carboxypeptidase Z) | 2 | 0.483 | inactive |
| CPZ (carboxypeptidase Z) | 3 | 0.464 | inactive |
| RGS7BP (regulator of G protein signaling 7 binding protein) | 1 | 0.456 | inactive |
| RGS7BP (regulator of G protein signaling 7 binding protein) | 2 | -0.0154 | inactive |
| RGS7BP (regulator of G protein signaling 7 binding protein) | 3 | -0.565 | inactive |
| SNX31 (sorting nexin 31) | 1 | -0.338 | inactive |
| SNX31 (sorting nexin 31) | 2 | 0.583 | inactive |
| SNX31 (sorting nexin 31) | 3 | 0.884 | inactive |
| RAB30 (RAB30, member RAS oncogene family) | 1 | 3.13 | inactive |
| RAB30 (RAB30, member RAS oncogene family) | 2 | -0.044 | inactive |
| RAB30 (RAB30, member RAS oncogene family) | 3 | -0.0129 | inactive |
| SCT (secretin) | 1 | -0.122 | inactive |
| SCT (secretin) | 2 | 2.09 | inactive |
| SCT (secretin) | 3 | 7.3 | active |
| HOXC6 (homeobox C6) | 1 | -0.857 | inactive |
| HOXC6 (homeobox C6) | 2 | -0.505 | inactive |
| HOXC6 (homeobox C6) | 3 | 0.81 | inactive |
| CLPTM1L (CLPTM1 like) | 1 | -0.576 | inactive |
| CLPTM1L (CLPTM1 like) | 2 | 0.168 | inactive |
| CLPTM1L (CLPTM1 like) | 3 | -0.902 | inactive |
| CEP120 (centrosomal protein 120) | 1 | 0.0524 | inactive |
| CEP120 (centrosomal protein 120) | 2 | 0.516 | inactive |
| CEP120 (centrosomal protein 120) | 3 | 1.08 | inactive |
| GDAP1 (ganglioside induced differentiation associated protein 1) | 1 | -0.388 | inactive |
| GDAP1 (ganglioside induced differentiation associated protein 1) | 2 | -0.081 | inactive |
| GDAP1 (ganglioside induced differentiation associated protein 1) | 3 | 0.512 | inactive |
| H2AC11 (H2A clustered histone 11) | 1 | 7.66 | active |
| H2AC11 (H2A clustered histone 11) | 2 | 0.55 | inactive |
| H2AC11 (H2A clustered histone 11) | 3 | -0.554 | inactive |
| CYBA (cytochrome b-245 alpha chain) | 1 | -1.12 | inactive |
| CYBA (cytochrome b-245 alpha chain) | 2 | 4.36 | inactive |
| CYBA (cytochrome b-245 alpha chain) | 3 | 0.745 | inactive |
| TFDP1 (transcription factor Dp-1) | 1 | 0.991 | inactive |
| TFDP1 (transcription factor Dp-1) | 2 | -1.07 | inactive |
| TFDP1 (transcription factor Dp-1) | 3 | -0.853 | inactive |
